Assay results: the supplement of paper PMC9938546
Structures can show the parent of a compound that is named as a salt. Some of the results follow. Plates or batches differ in their baseline, so values are only roughly comparable.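 HCT116-GFP is a human colorectal cancer cell line that carries a KRAS mutation, is microsatellite-unstable and always makes green fluorescent protein; the immune cells came from healthy donors. Live-cell imaging of the green signal stood in for cancer cell survival, and activated immune cells alone cut survival to about half.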

Each compound was assayed on HCT116-GFP (assay: HCT116-GFP viability (GFP intensity) relative to untreated HCT116-GFP monoculture control, co-culture with activated PBMCs; higher = less cancer cell killing). Settings: culture: co-culture with anti-CD3/IL2 activated PBMCs 1:1; 10 µM; 72 h.
Work on `CC(=O)Nc1ccc(CC(=O)O)cc1` [Actarit] yielded an HCT116-GFP viability of 57.6%.
In the case of `Cc1nc2n(c(=O)c1CCN1CCC(c3noc4cc(F)ccc34)CC1)CCCC2` [Risperidone], the HCT116-GFP viability is reported as 45.5%.
In the case of `CNCCC(Oc1ccc(C(F)(F)F)cc1)c1ccccc1` (centres undefined) [Fluoxetine hydrochloride], the HCT116-GFP viability is reported as 69.4%.
Work on `CCN1CC(CCN2CCOCC2)C(c2ccccc2)(c2ccccc2)C1=O` (centres undefined) [Doxapram hydrochloride] yielded an HCT116-GFP viability of 49.7%.
Compound `O=C(O)c1cc(-c2ccc(F)cc2F)ccc1O` [Diflunisal] has an HCT116-GFP viability of 38%.
For `CCCCNC(=O)NS(=O)(=O)c1ccc(C)cc1` [Tolbutamide], the HCT116-GFP viability was 40.4%.
For `CC(=O)[C@H]1CC[C@H]2[C@@H]3C[C@H](C)C4=CC(=O)CC[C@]4(C)[C@H]3[C@@H](O)C[C@]12C` [Medrysone], the HCT116-GFP viability was 87.3%.
`CCOC(=O)OC(C)OC1=C(C(=O)Nc2ccccn2)N(C)S(=O)(=O)c2ccccc21` (centres undefined) [Ampiroxicam] was tested, and the HCT116-GFP viability was 10.2%.
For `CCn1cc(C(=O)O)c(=O)c2cnc(N3CCCC3)nc21` [Piromidic acid], the HCT116-GFP viability was 73.8%.
In the case of `O=S(=O)(O)CCS` [Mesna], the HCT116-GFP viability is reported as 33.4%.
Work on `CC(C)(C)NC[C@H](O)c1ccc(O)c(CO)c1` [Levalbuterol hydrochloride] yielded an HCT116-GFP viability of 52.2%.
In the case of `COc1ccc2cc([C@@H](C)C(=O)O)ccc2c1` [(R) -Naproxen sodium salt], the HCT116-GFP viability is reported as 64%.
`Nc1nc(=O)c2c([nH]1)NC[C@@H](CNc1ccc(C(=O)N[C@@H](CCC(=O)O)C(=O)O)cc1)N2C=O` [Folinic acid calcium salt] showed an HCT116-GFP viability of 67.8%.
Compound `CC1(C)NC(=O)N(c2ccc([N+](=O)[O-])c(C(F)(F)F)c2)C1=O` [Nilutamide] has an HCT116-GFP viability of 70%.
In the case of `COC(=O)[C@@H]1[C@H]2C[C@H]3c4[nH]c5ccccc5c4CCN3C[C@@H]2CC[C@@H]1O` [Yohimbine hydrochloride], the HCT116-GFP viability is reported as 61.3%.
`CCCCC(CC)CNC(=N)NC(=N)NCCCCCCNC(=N)NC(=N)NCC(CC)CCCC` (centres undefined) [Alexidine dihydrochloride] was tested, and the HCT116-GFP viability was 0.0617%.
For `CCCCOc1cc(C(=O)NCCN(CC)CC)c2ccccc2n1` [Dibucaine], the HCT116-GFP viability was 60.2%.
With `O=C1CCc2cc(OCCCCc3nnnn3C3CCCCC3)ccc2N1` [Cilostazol] the HCT116-GFP viability was 48.6%.
Compound `CCS(=O)(=O)CCn1c([N+](=O)[O-])cnc1C` [Tinidazole] has an HCT116-GFP viability of 77.3%.
Work on `CCC1=C(C)CN(C(=O)NCCc2ccc(S(=O)(=O)NC(=O)N[C@H]3CC[C@H](C)CC3)cc2)C1=O` [Glimepiride] yielded an HCT116-GFP viability of 94.5%.
With `O=C1NCN(c2ccccc2)C12CCN(CCCC(c1ccc(F)cc1)c1ccc(F)cc1)CC2` [Fluspirilen] the HCT116-GFP viability was 44.7%.
With `CC(C)(C)C(=O)OCOC(=O)[C@@H]1N2C(=O)[C@@H](NC(=O)[C@H](N)c3ccccc3)[C@H]2SC1(C)C` [Pivampicillin] the HCT116-GFP viability was 38.1%.
`N=C(N)NC(=O)c1nc(Cl)c(N)nc1N` [Amiloride hydrochloride dihydrate] was tested, and the HCT116-GFP viability was 42%.
Compound `CCCCOC(=O)c1ccc(N)cc1` [Butamben] has an HCT116-GFP viability of 70.8%.
With `CCOc1ccccc1OCC1CNCCO1` (centres undefined) [Viloxazine hydrochloride] the HCT116-GFP viability was 67%.
`CC[C@H]1OC(=O)[C@H](C)[C@@H](O[C@H]2C[C@@](C)(OC)[C@@H](O)[C@H](C)O2)[C@H](C)[C@@H](O[C@@H]2O[C@H](C)C[C@H](N(C)C)[C@H]2O)[C@](C)(OC)C[C@@H](C)C(=O)[C@H](C)[C@@H](O)[C@]1(C)O` [Clarithromycin] was tested, and the HCT116-GFP viability was 33.6%.
Work on `N[C@@H]1CCCCN(c2c(F)cc3c(=O)c(C(=O)O)cn(C4CC4)c3c2Cl)C1` [Besifloxacin hydrochloride] yielded an HCT116-GFP viability of 49.5%.
`CCCCC1=NC2(CCCC2)C(=O)N1Cc1ccc(-c2ccccc2-c2nnn[nH]2)cc1` [Irbesartan] gave an HCT116-GFP viability of 23.3%.
Compound `CN[C@H](CC(C)C)C(=O)N[C@H]1C(=O)N[C@@H](CC(N)=O)C(=O)N[C@H]2C(=O)N[C@H]3C(=O)N[C@H](C(=O)N[C@H](C(=O)O)c4cc(O)cc(O)c4-c4cc3ccc4O)[C@H](O)c3ccc(c(Cl)c3)Oc3cc2cc(c3O[C@@H]2O[C@H](CO)[C@@H](O)[C@H](O)[C@H]2O[C@H]2C[C@](C)(N)[C@H](O)[C@H](C)O2)Oc2ccc(cc2Cl)[C@H]1O` [Vancomycin hydrochloride] has an HCT116-GFP viability of 45.7%.
In the case of `CNS(=O)(=O)Cc1ccc2[nH]cc(CCN(C)C)c2c1` [Sumatriptan succinate], the HCT116-GFP viability is reported as 51.2%.
In the case of `NS(=O)(=O)c1cc2c(cc1Cl)N=CNS2(=O)=O` [Chlorothiazide], the HCT116-GFP viability is reported as 32.7%.
In the case of `CCOC(=O)[C@H](CCc1ccccc1)N[C@@H](C)C(=O)N1[C@H](C(=O)O)C[C@@H]2CCC[C@@H]21` [Ramipril], the HCT116-GFP viability is reported as 19.4%.
`CCOc1ccc2c(c1)C(C)=CC(C)(C)N2` [Ethoxyquin] gave an HCT116-GFP viability of 71.9%.
`NC(=O)c1ncn([C@@H]2O[C@H](CO)[C@@H](O)[C@H]2O)n1` [Ribavirin] was tested, and the HCT116-GFP viability was 21.2%.
For `CC(C)COCC(CN(Cc1ccccc1)c1ccccc1)N1CCCC1` (centres undefined) [Bepridil hydrochloride], the HCT116-GFP viability was 52.9%.
`NS(=O)(=O)c1cc(C(=O)O)c(NCc2ccco2)cc1Cl` [Furosemide] showed an HCT116-GFP viability of 46.4%.
`COc1cc(C(=O)NS(=O)(=O)c2ccccc2C)ccc1Cc1cn(C)c2ccc(NC(=O)OC3CCCC3)cc12` [Zafirlukast] showed an HCT116-GFP viability of 50.2%.
Work on `Cc1cc(C2CCCCC2)n(O)c(=O)c1` [Ciclopirox ethanolamine] yielded an HCT116-GFP viability of 6.7%.
`Cc1cccc(C)c1NC(=O)C1CCCCN1C` (centres undefined) [Mepivacaine hydrochloride] was tested, and the HCT116-GFP viability was 61.6%.
`Cc1ncc([N+](=O)[O-])n1CC(O)CCl` (centres undefined) [Ornidazole] gave an HCT116-GFP viability of 32%.
With `CN1C(C(=O)Nc2ccccn2)=C(O)c2sccc2S1(=O)=O` [Tenoxicam] the HCT116-GFP viability was 47.4%.
With `C[C@]12CC[C@H]3C(=CCc4cc(O)ccc43)[C@@H]1CCC2=O` [Equilin] the HCT116-GFP viability was 79.8%.
`C=C[C@H]1CN2CC[C@H]1C[C@@H]2[C@@H](O)c1ccnc2ccc(OC)cc12` [Quinidine hydrochloride monohydrate] gave an HCT116-GFP viability of 81.5%.
For `CS(=O)(=O)c1ccc(C2=C(c3ccccc3)C(=O)OC2)cc1` [Rofecoxib], the HCT116-GFP viability was 35.9%.
`Cn1c(=O)c2[nH]cnc2n(C)c1=O` [Aminophylline] gave an HCT116-GFP viability of 65.3%.
`Cc1[nH]c(=O)c(C#N)cc1-c1ccncc1` [Milrinone] showed an HCT116-GFP viability of 32%.
For `CN(C)CCC=C1c2ccccc2CCc2ccccc21` [Amitryptiline hydrochloride], the HCT116-GFP viability was 57.6%.
`Cc1ccnc2c1NC(=O)c1cccnc1N2C1CC1` [Nevirapine] was tested, and the HCT116-GFP viability was 53.5%.
Work on `CCN(CC)CCOC(=O)C(c1ccccc1)C1CCCCC1` (centres undefined) [Drofenine hydrochloride] yielded an HCT116-GFP viability of 90.3%.
`COCC1=C(C(=O)OC(C)OC(=O)OC(C)C)N2C(=O)[C@@H](NC(=O)/C(=N\OC)c3csc(N)n3)[C@H]2SC1` (some centres undefined) [Cefpodoxime proxetil] showed an HCT116-GFP viability of 36.9%.
`COc1cc(Cc2cnc(N)nc2N)cc(OC)c1OC` [Trimethoprim] showed an HCT116-GFP viability of 35.3%.
Compound `O=C(CCCN1CCC(O)(c2ccc(Br)cc2)CC1)c1ccc(F)cc1` [Bromperidol] has an HCT116-GFP viability of 38.2%.
In the case of `CO[C@@]1(NC(=O)Cc2cccs2)C(=O)N2C(C(=O)O)=C(COC(N)=O)CS[C@@H]21` [Cefoxitin sodium salt], the HCT116-GFP viability is reported as 78.2%.
`CC(=O)c1ccc2c(c1)N(CCCN1CCC(CCO)CC1)c1ccccc1S2` [Piperacetazine] was tested, and the HCT116-GFP viability was 66.4%.
Work on `CCCCC(CC)CN1CN(CC(CC)CCCC)CC(C)(N)C1` (centres undefined) [Hexetidine] yielded an HCT116-GFP viability of 38.9%.
`COc1cc2c(cc1OC)C(=O)C(CC1CCN(Cc3ccccc3)CC1)C2` (centres undefined) [Donepezil hydrochloride] showed an HCT116-GFP viability of 43.4%.
In the case of `N#CC(c1ccc(Cl)cc1)c1c(Cl)cc(-n2ncc(=O)[nH]c2=O)cc1Cl` (centres undefined) [Diclazuril], the HCT116-GFP viability is reported as 20.7%.
Compound `COc1cc(OC)c(C(=O)CCCN2CCCC2)c(OC)c1` [Buflomedil hydrochloride] has an HCT116-GFP viability of 33.8%.
`CN1CCC(=C2c3ccccc3CC(=O)c3sccc32)CC1` [Ketotifen fumarate] showed an HCT116-GFP viability of 57.7%.
Work on `COc1ccccc1N1CCN(CC(O)COc2cccc3ccccc23)CC1` (centres undefined) [Naftopidil dihydrochloride] yielded an HCT116-GFP viability of 34%.
Compound `CN1CCCC(CC2c3ccccc3Sc3ccccc32)C1` (centres undefined) [Metixene hydrochloride] has an HCT116-GFP viability of 60.3%.
In the case of `CCN1C(=O)NC(c2ccccc2)C1=O` (centres undefined) [Ethotoin], the HCT116-GFP viability is reported as 62.8%.
For `CCCN(CCC)C(=O)C(CCC(=O)O)NC(=O)c1ccccc1` (centres undefined) [Proglumide], the HCT116-GFP viability was 53.4%.
`COc1ccc2c(c1)N(C[C@H](C)CN(C)C)c1ccccc1S2` [Methotrimeprazine maleat salt] showed an HCT116-GFP viability of 81.2%.
`CC(C)(Sc1cc(C(C)(C)C)c(O)c(C(C)(C)C)c1)Sc1cc(C(C)(C)C)c(O)c(C(C)(C)C)c1` [Probucol] was tested, and the HCT116-GFP viability was 33.3%.
Compound `Cn1ccnc1S` [Methimazole] has an HCT116-GFP viability of 66.9%.
With `Nc1c(Br)cc(Br)cc1CN[C@H]1CC[C@H](O)CC1` [Ambroxol hydrochloride] the HCT116-GFP viability was 69.2%.
Work on `CN(C)CC/C=C1\c2ccccc2CSc2ccccc21` [Dosulepin hydrochloride] yielded an HCT116-GFP viability of 57.7%.
`CC(C)(Oc1ccc(Cl)cc1)C(=O)O` [Clofibric acid] showed an HCT116-GFP viability of 63%.
For `Cn1c(=O)c2c(ncn2CC(=O)O)n(C)c1=O` [Acefylline], the HCT116-GFP viability was 64.6%.
In the case of `CO[C@H]1C[C@H](O[C@H]2[C@H](C)[C@@H](O[C@@H]3O[C@H](C)C[C@H](N(C)C)[C@H]3OC(C)=O)[C@@H](C)C[C@@]3(CO3)C(=O)[C@H](C)[C@@H](OC(C)=O)[C@@H](C)[C@@H](C)OC(=O)[C@@H]2C)O[C@@H](C)[C@@H]1OC(C)=O` [Troleandomycin], the HCT116-GFP viability is reported as 66%.
With `COc1ccc(-c2ccc(=N)n(CCCC(=O)O)n2)cc1` [Gabazine bromide] the HCT116-GFP viability was 42.7%.
For `Cc1cc(C(=O)NNCc2ccccc2)no1` [Isocarboxazid], the HCT116-GFP viability was 73.8%.
Compound `CN1CCN(C2=Nc3cc(Cl)ccc3Nc3ccccc32)CC1` [Clozapine] has an HCT116-GFP viability of 65.2%.
